Source: US20020127536A1, “Mitochondrial assay” (priority 2001, published 2002)
At least one compound was matched to its structure with a doubt left.

Assays:
respiratory complex II = test: Polarographic assay of uncoupled (2,4-dinitrophenol) maximal respiration with succinate: inhibition of electron transport at site II; type: biochemical, rat
ATP synthetase = test: Polarographic assay of ADP-stimulated coupled versus uncoupled respiration: inhibition of ATP synthetase; type: biochemical, rat; conditions: for Inhibition of ATP synthetase (in words): rat liver mitochondria, coupled but not uncoupled respiration inhibited, indirect polarographic assay
Protocol: (§1) When coupling is intact, basal respiration will be stimulated by the addition of ADP to invoke ATP synthesis, as electron transport is stepped up to replace the H^+ gradient that is used by the ATP synthetase enzyme. If the drug inhibits this coupled respiration rate, the inhibition could be due either to inhibition of the ATP synthetase itself or to inhibition of the electron transport rate that supports the ATP synthesis. To detect which is inhibited, the drug is also tested for inhibition of maximal electron transport rates in the presence of a known uncoupler. Inhibition of the coupled, but not the uncoupled respiration rate pinpoints the inhibition to the ATP synthetase or to one of the supporting transport processes such as the phosphate or ADP/ATP transporters.
as §1, with “The third test examines whether the drug inhibits ATP synthetase. When” for “When”, “the difference,” for “which is inhibited,”, “uncoupler, as in the first test described supra.” for “uncoupler.”, “coupled” for “coupled,”, “as” for “as the”
When coupling is intact, basal respiration is stimulated by the addition of ADP which stimulates ATP synthesis, as electron transport is stepped up to re-establish the H^+ gradient that is used by the ATP synthetase enzyme. If the drug inhibits this coupled respiration rate, the inhibition could be due either to inhibition of the ATP synthetase itself or to inhibition of the electron transport rate that supports the ATP synthesis. […]

electron transport chain = test: Polarographic assay of maximal electron transport rate (oxygen consumption), overall inhibition; type: biochemical; conditions: rat liver mitochondria; maximal rate of oxygen consumption with 2,4-dinitrophenol
[1] = 500 μM drug, isolated rat liver mitochondria, qualitative

CN1CCN(C2=Nc3cc(Cl)ccc3Nc3ccccc32)CC1 [Clozapine]
El. Transport Site II (respiratory complex II; [1]): ++ | Inhibition of electron transport at respiratory complex II (in words) (respiratory complex II; rat liver mitochondria, 2,4-dinitrophenol added, preliminary data): specifically inhibited at respiratory complex II | ATP Synthesis (ATP synthetase; [1]): + | Inhibition of ATP synthetase (in words) (ATP synthetase): appeared to inhibit ATP synthetase | Inhibition of ATP synthetase (in words) (ATP synthetase; listed as clozapine): candidate for inhibition of ATP synthetase | Inhibition of electron transport, overall (in words) (electron transport chain): very mild effects
